From publication PMC11208467
Results are given in words; binding and its absence hold for the method and conditions named. In cells and extracts the contact can be indirect. Some binding calls cover weakened binding; strength is not graded here.

Amino acid sequences for entries named in this document (tags omitted).
UniProt P42224: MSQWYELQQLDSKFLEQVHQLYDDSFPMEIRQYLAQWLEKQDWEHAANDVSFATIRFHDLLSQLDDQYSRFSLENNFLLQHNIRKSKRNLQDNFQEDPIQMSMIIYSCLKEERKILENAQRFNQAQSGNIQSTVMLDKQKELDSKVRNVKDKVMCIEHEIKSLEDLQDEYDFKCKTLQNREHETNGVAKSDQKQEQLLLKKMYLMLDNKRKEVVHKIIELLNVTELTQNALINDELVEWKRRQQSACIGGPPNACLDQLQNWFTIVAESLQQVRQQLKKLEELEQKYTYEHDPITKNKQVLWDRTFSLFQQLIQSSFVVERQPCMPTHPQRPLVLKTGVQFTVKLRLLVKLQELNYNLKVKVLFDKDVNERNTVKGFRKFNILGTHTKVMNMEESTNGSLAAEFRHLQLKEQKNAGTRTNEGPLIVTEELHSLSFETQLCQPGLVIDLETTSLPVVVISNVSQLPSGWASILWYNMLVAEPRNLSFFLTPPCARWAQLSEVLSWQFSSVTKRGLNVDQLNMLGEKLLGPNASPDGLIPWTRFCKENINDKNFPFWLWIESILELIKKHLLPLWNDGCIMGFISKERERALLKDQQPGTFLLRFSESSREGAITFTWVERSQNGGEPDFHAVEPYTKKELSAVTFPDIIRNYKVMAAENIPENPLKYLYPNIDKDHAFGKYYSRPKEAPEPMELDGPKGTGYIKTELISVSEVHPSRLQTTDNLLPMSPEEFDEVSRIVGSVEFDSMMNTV

Target: Signal transducer and activator of transcription 1 (human (endogenous in BEAS 2b)) (UniProt P42224)
Experiment: co-IP; BEAS 2b cells transfected with RSV-NS1 or EV for 24h, untreated (Figure 4D) or stimulated with 1000IU IFN-α for 30min (Figure 4E); lysed in HEPES lysis buffer (50 mM HEPES, 150 mM NaCl, 2 mM EDTA, 1% NP40, 0.5% sodium deoxycholate); immunoprecipitated with anti-STAT1 antibody and protein A/G agarose beads; immunoblotted for STAT1, RSV-NS1, KPNA1

B1: Respiratory syncytial virus non-structural protein 1 (protein, UniProt P0DOE9 1-139)
chain: MGSNSLSMIKVRLQNLFDNDEVALLKITCYTDKLIHLTNALAKAVIHTIKLNGIVFVHVITSSDICPNNNIVVKSNFTTMPVLQNGGYIWEMMELTHCSQPNGLLDDNCEIKFSKKLSDSTMTNYMNQLSELLGFDLNP
binding: binds
